Experimental data as given in article PMC12011128.
No constants are given. Whether binding was seen depends on the method and setting. Binding seen in cells or lysates may run through a third protein. Some entries that bind do so weakly or less than the wild type. Tags and fused reporters may be left off the sequences shown.

Sequences of proteins named here, by UniProt entry; tags and fusion partners are left off. A change or cut given only in a name is not applied to a line headed by its entry.
UniProt Q14457: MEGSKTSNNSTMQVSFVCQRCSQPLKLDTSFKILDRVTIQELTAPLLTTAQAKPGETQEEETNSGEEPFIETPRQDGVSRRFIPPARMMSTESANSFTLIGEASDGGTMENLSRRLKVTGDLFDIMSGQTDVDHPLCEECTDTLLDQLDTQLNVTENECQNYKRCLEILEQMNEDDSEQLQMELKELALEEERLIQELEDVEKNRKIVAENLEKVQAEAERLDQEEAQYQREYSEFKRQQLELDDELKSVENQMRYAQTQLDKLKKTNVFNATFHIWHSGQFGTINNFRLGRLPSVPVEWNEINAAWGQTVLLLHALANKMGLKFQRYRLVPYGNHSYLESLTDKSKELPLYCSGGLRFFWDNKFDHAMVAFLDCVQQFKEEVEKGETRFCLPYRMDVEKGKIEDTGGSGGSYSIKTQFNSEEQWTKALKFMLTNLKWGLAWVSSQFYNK

T1: Flag-tagged MCPIP1 wild type (full-length Flag-MCPIP1) (UniProt Q5D1E8)
T1 sequence: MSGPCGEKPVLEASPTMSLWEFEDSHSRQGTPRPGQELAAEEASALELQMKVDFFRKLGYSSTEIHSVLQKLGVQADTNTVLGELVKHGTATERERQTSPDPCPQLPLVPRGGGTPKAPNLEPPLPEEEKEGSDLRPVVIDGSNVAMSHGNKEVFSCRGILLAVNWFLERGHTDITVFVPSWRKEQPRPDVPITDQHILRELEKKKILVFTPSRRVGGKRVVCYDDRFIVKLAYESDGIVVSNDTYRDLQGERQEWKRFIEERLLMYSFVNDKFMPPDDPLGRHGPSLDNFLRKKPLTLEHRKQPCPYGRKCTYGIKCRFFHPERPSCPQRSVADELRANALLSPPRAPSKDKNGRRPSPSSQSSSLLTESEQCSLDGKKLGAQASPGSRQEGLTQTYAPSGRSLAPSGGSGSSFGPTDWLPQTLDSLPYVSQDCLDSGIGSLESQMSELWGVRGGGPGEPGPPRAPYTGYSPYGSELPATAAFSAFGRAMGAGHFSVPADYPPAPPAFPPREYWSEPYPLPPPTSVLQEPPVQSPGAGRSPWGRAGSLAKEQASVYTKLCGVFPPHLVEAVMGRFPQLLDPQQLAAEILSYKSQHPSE

T2: Myc-tagged MCPIP1 (UniProt Q5D1E8)
T2 sequence: T1 sequence

B1: Flag-MCPIP1 1–453 (domain or fragment, UniProt Q5D1E8 1-453)
chain: MSGPCGEKPVLEASPTMSLWEFEDSHSRQGTPRPGQELAAEEASALELQMKVDFFRKLGYSSTEIHSVLQKLGVQADTNTVLGELVKHGTATERERQTSPDPCPQLPLVPRGGGTPKAPNLEPPLPEEEKEGSDLRPVVIDGSNVAMSHGNKEVFSCRGILLAVNWFLERGHTDITVFVPSWRKEQPRPDVPITDQHILRELEKKKILVFTPSRRVGGKRVVCYDDRFIVKLAYESDGIVVSNDTYRDLQGERQEWKRFIEERLLMYSFVNDKFMPPDDPLGRHGPSLDNFLRKKPLTLEHRKQPCPYGRKCTYGIKCRFFHPERPSCPQRSVADELRANALLSPPRAPSKDKNGRRPSPSSQSSSLLTESEQCSLDGKKLGAQASPGSRQEGLTQTYAPSGRSLAPSGGSGSSFGPTDWLPQTLDSLPYVSQDCLDSGIGSLESQMSELWGV
B2: Flag-MCPIP1 1–555 (domain or fragment, UniProt Q5D1E8 1-555)
chain: MSGPCGEKPVLEASPTMSLWEFEDSHSRQGTPRPGQELAAEEASALELQMKVDFFRKLGYSSTEIHSVLQKLGVQADTNTVLGELVKHGTATERERQTSPDPCPQLPLVPRGGGTPKAPNLEPPLPEEEKEGSDLRPVVIDGSNVAMSHGNKEVFSCRGILLAVNWFLERGHTDITVFVPSWRKEQPRPDVPITDQHILRELEKKKILVFTPSRRVGGKRVVCYDDRFIVKLAYESDGIVVSNDTYRDLQGERQEWKRFIEERLLMYSFVNDKFMPPDDPLGRHGPSLDNFLRKKPLTLEHRKQPCPYGRKCTYGIKCRFFHPERPSCPQRSVADELRANALLSPPRAPSKDKNGRRPSPSSQSSSLLTESEQCSLDGKKLGAQASPGSRQEGLTQTYAPSGRSLAPSGGSGSSFGPTDWLPQTLDSLPYVSQDCLDSGIGSLESQMSELWGVRGGGPGEPGPPRAPYTGYSPYGSELPATAAFSAFGRAMGAGHFSVPADYPPAPPAFPPREYWSEPYPLPPPTSVLQEPPVQSPGAGRSPWGRAGSLAKEQAS
B3: Flag-MCPIP1 150–453 (domain or fragment, UniProt Q5D1E8 150-453)
chain: GNKEVFSCRGILLAVNWFLERGHTDITVFVPSWRKEQPRPDVPITDQHILRELEKKKILVFTPSRRVGGKRVVCYDDRFIVKLAYESDGIVVSNDTYRDLQGERQEWKRFIEERLLMYSFVNDKFMPPDDPLGRHGPSLDNFLRKKPLTLEHRKQPCPYGRKCTYGIKCRFFHPERPSCPQRSVADELRANALLSPPRAPSKDKNGRRPSPSSQSSSLLTESEQCSLDGKKLGAQASPGSRQEGLTQTYAPSGRSLAPSGGSGSSFGPTDWLPQTLDSLPYVSQDCLDSGIGSLESQMSELWGV
B4: Flag-MCPIP1 81–599 (domain or fragment, UniProt Q5D1E8 81-599)
chain: VLGELVKHGTATERERQTSPDPCPQLPLVPRGGGTPKAPNLEPPLPEEEKEGSDLRPVVIDGSNVAMSHGNKEVFSCRGILLAVNWFLERGHTDITVFVPSWRKEQPRPDVPITDQHILRELEKKKILVFTPSRRVGGKRVVCYDDRFIVKLAYESDGIVVSNDTYRDLQGERQEWKRFIEERLLMYSFVNDKFMPPDDPLGRHGPSLDNFLRKKPLTLEHRKQPCPYGRKCTYGIKCRFFHPERPSCPQRSVADELRANALLSPPRAPSKDKNGRRPSPSSQSSSLLTESEQCSLDGKKLGAQASPGSRQEGLTQTYAPSGRSLAPSGGSGSSFGPTDWLPQTLDSLPYVSQDCLDSGIGSLESQMSELWGVRGGGPGEPGPPRAPYTGYSPYGSELPATAAFSAFGRAMGAGHFSVPADYPPAPPAFPPREYWSEPYPLPPPTSVLQEPPVQSPGAGRSPWGRAGSLAKEQASVYTKLCGVFPPHLVEAVMGRFPQLLDPQQLAAEILSYKSQHPSE
B5: Flag-tagged MCPIP1 wild type (full-length Flag-MCPIP1) (protein, UniProt Q5D1E8 1-599)
chain: T1 sequence
B6: Flag-MCPIP1 150–599 (domain or fragment, UniProt Q5D1E8 150-599)
chain: GNKEVFSCRGILLAVNWFLERGHTDITVFVPSWRKEQPRPDVPITDQHILRELEKKKILVFTPSRRVGGKRVVCYDDRFIVKLAYESDGIVVSNDTYRDLQGERQEWKRFIEERLLMYSFVNDKFMPPDDPLGRHGPSLDNFLRKKPLTLEHRKQPCPYGRKCTYGIKCRFFHPERPSCPQRSVADELRANALLSPPRAPSKDKNGRRPSPSSQSSSLLTESEQCSLDGKKLGAQASPGSRQEGLTQTYAPSGRSLAPSGGSGSSFGPTDWLPQTLDSLPYVSQDCLDSGIGSLESQMSELWGVRGGGPGEPGPPRAPYTGYSPYGSELPATAAFSAFGRAMGAGHFSVPADYPPAPPAFPPREYWSEPYPLPPPTSVLQEPPVQSPGAGRSPWGRAGSLAKEQASVYTKLCGVFPPHLVEAVMGRFPQLLDPQQLAAEILSYKSQHPSE
B7: Flag-TRAF6 260–522 (domain or fragment, UniProt Q9Y4K3 260-522)
chain: RHLQENTQSHMRMLAQAVHSLSVIPDSGYISEVRNFQETIHQLEGRLVRQDHQIRELTAKMETQSMYVSELKRTIRTLEDKVAEIEAQQCNGIYIWKIGNFGMHLKCQEEEKPVVIHSPGFYTGKPGYKLCMRLHLQLPTAQRCANYISLFVHTMQGEYDSHLPWPFQGTIRLTILDQSEAPVRQNHEEIMDAKPELLAFQRPTIPRNPKGFGYVTFMHLEALRQRTFIKDDTLLVRCEVSTRFDMGSLRREGFQPRSTDAGV
B8: Flag-TRAF6 110–522 (domain or fragment, UniProt Q9Y4K3 110-522)
chain: EILLENQLFPDNFAKREILSLMVKCPNEGCLHKMELRHLEDHQAHCEFALMDCPQCQRPFQKFHINIHILKDCPRRQVSCDNCAASMAFEDKEIHDQNCPLANVICEYCNTILIREQMPNHYDLDCPTAPIPCTFSTFGCHEKMQRNHLARHLQENTQSHMRMLAQAVHSLSVIPDSGYISEVRNFQETIHQLEGRLVRQDHQIRELTAKMETQSMYVSELKRTIRTLEDKVAEIEAQQCNGIYIWKIGNFGMHLKCQEEEKPVVIHSPGFYTGKPGYKLCMRLHLQLPTAQRCANYISLFVHTMQGEYDSHLPWPFQGTIRLTILDQSEAPVRQNHEEIMDAKPELLAFQRPTIPRNPKGFGYVTFMHLEALRQRTFIKDDTLLVRCEVSTRFDMGSLRREGFQPRSTDAGV
B9: Flag-TRAF6 349–522 (domain or fragment, UniProt Q9Y4K3 349-522)
chain: CNGIYIWKIGNFGMHLKCQEEEKPVVIHSPGFYTGKPGYKLCMRLHLQLPTAQRCANYISLFVHTMQGEYDSHLPWPFQGTIRLTILDQSEAPVRQNHEEIMDAKPELLAFQRPTIPRNPKGFGYVTFMHLEALRQRTFIKDDTLLVRCEVSTRFDMGSLRREGFQPRSTDAGV

The molecules below were run against T1, Flag-tagged MCPIP1 wild type (full-length Flag-MCPIP1) (assay: co-IP; semi-endogenous IP: HPF cells transiently transfected with Flag-MCPIP1, with or without 15 µg/mL LPS for 3 hours; IP with anti-IgG or anti-Flag, immunoblot with anti-Flag, anti-TRAF6 and anti-BECN1).

Row | binding | Molecule
1 | binds | BECN1 (endogenous, HPF cells) (from UniProt Q14457 1-450)

Each molecule was assayed against Myc-tagged BECN1 (UniProt Q14457) (assay: co-IP; HPF cells co-transfected with a Myc-tagged and a Flag-tagged protein (Lipofectamine 2000), collected after 38 hours; lysates immunoprecipitated with anti-Myc antibody, SDS-PAGE, immunoblot with anti-Myc and anti-Flag; for TRAF6 with BECN1 also with different concentrations of Flag-MCPIP1 co-expressed).

Row | binding | Molecule
2 | binds | B1
3 | binds | B2
4 | binds | B3
5 | binds | B4
6 | binds | B5
7 | binds | B6

These molecules were tested against T2, Myc-tagged MCPIP1 in the same assay as above.

Row | binding | Molecule
8 | binds | Flag-BECN1 1–269 (from UniProt Q14457 1-269) (domain or fragment)
9 | binds | Flag-tagged BECN1 (full-length BECN1) (from UniProt Q14457 1-450)
10 | binds | B7
11 | binds | B8
12 | binds | B9
